# Experimental data as given in the supplement of paper PMC8728848.
# This is one part of the list.
# B1: AntigenI/IIA3VP1 (Streptococcus mutans), C9E3B4 (protein)
# chain: AANEADYQAKLTAYQTELARVQKANADAKAAYEAAVAANNAANAALTAENTAIKKRNADAKADYEAKLAKYQADLAKYQKDLADYPVKLKAYEDEQASIKAALAELEKHKNEDGNLTEPSAQNLVYDLEPNANLSLTTDGKFLKASAVDDAFSKSTSKAKYDQKILQLDDLDITNLEQSNDVASSMELYGNFGDKAGWSTTVSNNSQVKWGSVLLERGQSATATYTNLQNSYYNGKKISKIVYKYTVDPKSKFQGQKVWLGIFTDPTLGVFASAYTGQVEKNTSIFIKNEFTFYDEDGKPINFDNALLSVASLNREHNSIEMAKDYSGKFVKISGSSIGEKNGMIYATDTLNFKQGEGGSRWTMYKNSQAGSGWDSSDAPNSWYGAGAIKMSGPNNYVTVGATSATNVMPVSDMPVVPGKDNTDGKKPNIWYSLNGKIRAVNVPKVTKEKPTPPVKPTAPTKPTYETEKPLKPAPVAPNYEKEPTPPTRLEHHHHHH
# Key:
# Assay in all cases: glycan array binding signal (z-score within array); higher = stronger binding
# Conditions in all cases: glycan notation: IUPAC condensed, linker removed
# GalNAc(b1-3)Gal = target: GalNAc(b1-3)Gal
# Method in brief: (§1)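 The Consortium for Functional Glycomics database supplied 3228 glycan arrays, of which those lacking an available protein sequence were dropped. The binding signal, a within-array Z-score, was averaged across arrays of the same protein sequence and across linkers. Negative scores can be read as non-binding.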
# [1] = target: GalNAc(b1-3)Gal(a1-4)Gal(b1-4)GlcNAc
# Method in brief: as §1
# [2] = target: GalNAc(b1-3)Gal(a1-4)Gal(b1-4)GlcNAc(b1-3)Gal(b1-4)Glc
# Method in brief: as §1
# [3] = target: GalNAc(b1-3)Gal(a1-6)Gal(b1-4)Glc
# Method in brief: as §1
# GalNAc(b1-3)GalNAc = target: GalNAc(b1-3)GalNAc
# Method in brief: as §1
# GalNAc(b1-3)GlcNAc = target: GalNAc(b1-3)GlcNAc
# Method in brief: as §1
# GalNAc(b1-4)Gal(b1-4)Glc = target: GalNAc(b1-4)Gal(b1-4)Glc
# Method in brief: as §1
# GalNAc(b1-4)GlcNAc = target: GalNAc(b1-4)GlcNAc
# Method in brief: as §1
# [4] = target: GalNAc(b1-4)GlcNAc(b1-2)Man
# Method in brief: as §1
# [5] = target: GalNAc(b1-4)GlcNAc(b1-2)Man(a1-3)[GalNAc(b1-4)GlcNAc(b1-2)Man(a1-6)]Man(b1-4)GlcNAc(b1-4)GlcNAc
# Method in brief: as §1
# [6] = target: GalNAc(b1-4)GlcNAc(b1-3)GalNAc(b1-4)GlcNAc
# Method in brief: as §1
# GalNAc(b1-4)GlcNAc6S = target: GalNAc(b1-4)GlcNAc6S
# Method in brief: as §1
# GalNAc(b1-6)GalNAc = target: GalNAc(b1-6)GalNAc
# Method in brief: as §1
# GalNAc3S(b1-4)GlcNAc = target: GalNAc3S(b1-4)GlcNAc
# Method in brief: as §1
# GalNAc3S(b1-4)GlcNAc3S = target: GalNAc3S(b1-4)GlcNAc3S
# Method in brief: as §1
# [7] = target: GalNAc3S(b1-4)[Fuc(a1-3)]GlcNAc
# Method in brief: as §1
# GalNAc4S6S(b1-4)GlcNAc = target: GalNAc4S6S(b1-4)GlcNAc
# Method in brief: as §1
# GalNAc6S(b1-4)GlcNAc = target: GalNAc6S(b1-4)GlcNAc
# Method in brief: as §1
# Glc(a1-4)Glc = target: Glc(a1-4)Glc
# Method in brief: as §1
# [8] = target: Glc(a1-4)Glc(a1-4)Glc(a1-4)Glc
# Method in brief: as §1
# Glc(a1-6)Glc(a1-6)Glc = target: Glc(a1-6)Glc(a1-6)Glc
# Method in brief: as §1
# [9] = target: Glc(a1-6)Glc(a1-6)Glc(a1-6)Glc
# Method in brief: as §1
# Glc(b1-4)Glc = target: Glc(b1-4)Glc
# Method in brief: as §1
# Glc(b1-6)Glc = target: Glc(b1-6)Glc
# Method in brief: as §1
# GlcA(b1-3)Gal = target: GlcA(b1-3)Gal
# Method in brief: as §1
# GlcA(b1-3)GlcNAc = target: GlcA(b1-3)GlcNAc
# Method in brief: as §1
# GlcA(b1-6)Gal = target: GlcA(b1-6)Gal
# Method in brief: as §1
# [10] = target: GlcA3S(b1-3)Gal(b1-4)GlcNAc(b1-2)Man
# Method in brief: as §1
# [11] = target: GlcA3S(b1-3)Gal(b1-4)GlcNAc(b1-3)Gal(b1-4)Glc
# Method in brief: as §1
# [12] = target: GlcNAc(a1-3)Gal(b1-4)GlcNAc
# Method in brief: as §1
# [13] = target: GlcNAc(a1-4)Gal(b1-3)GlcNAc
# Method in brief: as §1
# [14] = target: GlcNAc(a1-4)Gal(b1-4)GalNAc
# Method in brief: as §1
# [15] = target: GlcNAc(a1-4)Gal(b1-4)GlcNAc
# Method in brief: as §1
# [16] = target: GlcNAc(a1-4)Gal(b1-4)GlcNAc(b1-3)Gal(b1-4)Glc
# Method in brief: as §1
# [17] = target: GlcNAc(a1-4)Gal(b1-4)GlcNAc(b1-3)Gal(b1-4)GlcNAc
# Method in brief: as §1
# [18] = target: GlcNAc(a1-4)Gal(b1-4)GlcNAc(b1-3)Gal(b1-4)GlcNAc(b1-3)Gal(b1-4)GlcNAc
# Method in brief: as §1
# [19] = target: GlcNAc(a1-4)Gal(b1-4)GlcNAc(b1-3)Gal(b1-4)[Fuc(a1-3)]GlcNAc(b1-3)Gal(b1-4)[Fuc(a1-3)]GlcNAc
# Method in brief: as §1
# [20] = target: GlcNAc(a1-6)Gal(b1-4)GlcNAc
# Method in brief: as §1
binder,measurement,setting,value
B1,glycan array binding signal (z-score),GalNAc(b1-3)Gal,-0.411
same,glycan array binding signal (z-score),[1],0.73
same,glycan array binding signal (z-score),[2],-0.843
same,glycan array binding signal (z-score),[3],-1.06
same,glycan array binding signal (z-score),GalNAc(b1-3)GalNAc,1.37
same,glycan array binding signal (z-score),GalNAc(b1-3)GlcNAc,-0.475
same,glycan array binding signal (z-score),GalNAc(b1-4)Gal(b1-4)Glc,-0.825
same,glycan array binding signal (z-score),GalNAc(b1-4)GlcNAc,0.185
same,glycan array binding signal (z-score),[4],-0.797
same,glycan array binding signal (z-score),[5],-0.868
same,glycan array binding signal (z-score),[6],-0.774
same,glycan array binding signal (z-score),GalNAc(b1-4)GlcNAc6S,-1.3
same,glycan array binding signal (z-score),GalNAc(b1-6)GalNAc,-0.455
same,glycan array binding signal (z-score),GalNAc3S(b1-4)GlcNAc,-1.46
same,glycan array binding signal (z-score),GalNAc3S(b1-4)GlcNAc3S,-0.649
same,glycan array binding signal (z-score),[7],-0.56
same,glycan array binding signal (z-score),GalNAc4S6S(b1-4)GlcNAc,-0.462
same,glycan array binding signal (z-score),GalNAc6S(b1-4)GlcNAc,0.953
same,glycan array binding signal (z-score),Glc(a1-4)Glc,-0.184
same,glycan array binding signal (z-score),[8],-1.19
same,glycan array binding signal (z-score),Glc(a1-6)Glc(a1-6)Glc,-0.587
same,glycan array binding signal (z-score),[9],0.177
same,glycan array binding signal (z-score),Glc(b1-4)Glc,-0.227
same,glycan array binding signal (z-score),Glc(b1-6)Glc,-0.364
same,glycan array binding signal (z-score),GlcA(b1-3)Gal,-1.1
same,glycan array binding signal (z-score),GlcA(b1-3)GlcNAc,-0.575
same,glycan array binding signal (z-score),GlcA(b1-6)Gal,0.669
same,glycan array binding signal (z-score),[10],-1.08
same,glycan array binding signal (z-score),[11],-0.669
same,glycan array binding signal (z-score),[12],-0.724
same,glycan array binding signal (z-score),[13],-0.218
same,glycan array binding signal (z-score),[14],-0.793
same,glycan array binding signal (z-score),[15],-0.916
same,glycan array binding signal (z-score),[16],0.082
same,glycan array binding signal (z-score),[17],1.47
same,glycan array binding signal (z-score),[18],-0.892
same,glycan array binding signal (z-score),[19],0.07
same,glycan array binding signal (z-score),[20],0.177

# In a second layout: results already given.
binder | measurement | setting | value
B1 | glycan array binding signal (z-score) | [2] | -0.843
same | glycan array binding signal (z-score) | GlcA(b1-3)GlcNAc | -0.575
same | glycan array binding signal (z-score) | [11] | -0.669
